# Results are given in words; binding and its absence hold for the method and conditions named. In cells and extracts the contact can be indirect. These calls come from enrichment with a bait or labelling near it, and not all partners need be listed.
# The chains behind the UniProt entries cited, without tags or fusion partners.
# UniProt Q9UBL6: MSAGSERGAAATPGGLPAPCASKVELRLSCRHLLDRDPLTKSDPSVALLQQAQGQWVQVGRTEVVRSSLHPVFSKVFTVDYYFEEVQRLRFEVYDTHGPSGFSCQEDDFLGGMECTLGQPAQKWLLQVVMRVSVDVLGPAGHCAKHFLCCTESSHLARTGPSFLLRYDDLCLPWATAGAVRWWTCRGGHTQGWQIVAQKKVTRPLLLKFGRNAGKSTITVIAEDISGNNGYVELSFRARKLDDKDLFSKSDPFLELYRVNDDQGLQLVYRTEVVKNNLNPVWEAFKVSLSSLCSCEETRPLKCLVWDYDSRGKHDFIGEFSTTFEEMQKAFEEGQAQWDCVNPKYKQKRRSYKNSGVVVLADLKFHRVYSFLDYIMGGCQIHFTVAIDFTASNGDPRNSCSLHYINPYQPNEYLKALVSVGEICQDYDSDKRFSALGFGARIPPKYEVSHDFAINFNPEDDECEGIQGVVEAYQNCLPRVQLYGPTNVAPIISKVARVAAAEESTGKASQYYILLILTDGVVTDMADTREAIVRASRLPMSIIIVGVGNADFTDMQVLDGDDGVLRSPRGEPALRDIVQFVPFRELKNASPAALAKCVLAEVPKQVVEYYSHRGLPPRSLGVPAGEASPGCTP
# UniProt P14618: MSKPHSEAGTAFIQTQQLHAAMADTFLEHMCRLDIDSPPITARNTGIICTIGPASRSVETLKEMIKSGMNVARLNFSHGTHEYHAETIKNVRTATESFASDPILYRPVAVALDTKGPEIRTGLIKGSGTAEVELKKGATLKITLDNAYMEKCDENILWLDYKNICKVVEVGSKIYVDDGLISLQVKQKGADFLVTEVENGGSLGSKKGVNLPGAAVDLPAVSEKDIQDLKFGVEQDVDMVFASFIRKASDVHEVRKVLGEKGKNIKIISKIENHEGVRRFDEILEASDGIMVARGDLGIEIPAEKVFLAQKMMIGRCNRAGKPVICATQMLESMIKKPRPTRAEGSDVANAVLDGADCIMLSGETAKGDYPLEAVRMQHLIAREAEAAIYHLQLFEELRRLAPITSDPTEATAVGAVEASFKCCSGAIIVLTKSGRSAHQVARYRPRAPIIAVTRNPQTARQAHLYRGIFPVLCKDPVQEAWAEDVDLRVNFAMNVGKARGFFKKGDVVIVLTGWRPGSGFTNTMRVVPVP
# Target: Copine 7 (CPNE7), in CPNE7-OE cells (UniProt Q9UBL6)
# Experiment: affinity purification with mass spectrometry; Co-IP from CPNE7-OE cells compared with control; proteins separated in SDS-PAGE gel, cut out and sequenced by liquid mass spectrometry (PTM Biolabs)
substance,measurement,value
"Pyruvate kinase muscle protein (PKM2), found in the co-IP proteomics of CPNE7-OE cells (from UniProt P14618 1-531)",binding,binds
